# Results: PubChem BioAssay AID504834 (National Center for Advancing Translational Sciences (NCATS), 2011)
# The campaign covered roughly 320,000 compounds. About 22,000 (6.9%) were called active. The inconclusive results got no clear call from the source; some entries with a clear call stand among them for comparison. Calls come from the whole dose curve; as a rule, active = well fitted inhibition curve with a large enough effect; inconclusive = small, poorly fitted or top-dose-only effect, or another doubt; inactive = no such curve, though single readings can be large or run the other way. Potencies beside an inconclusive call are fits to weak or partial responses and may not hold up.
# Assay: Primary qHTS for delayed death inhibitors of the malarial parasite plastid, 96 hour incubation
# Conditions: P. falciparum luciferase reporter growth; series mostly up to 28.7 µM
# Summary of the method: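 96 h incubation, 37 C, 5% CO2, of luciferase-reporter P. falciparum-infected RBCs (2% hematocrit, 0.05% parasitemia final) with test compounds; endpoint luminescence.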
# Potency is the fitted concentration of half-maximal effect.
row,SMILES,Potency
1,CC(C)c1cc(NCc2ccccn2)n2c(nc3ccccc32)c1C#N,"inconclusive: 20.8 µM [inhibitor, single point]"
2,CNC(=O)c1ccsc1NC(=O)c1ccc(S(=O)(=O)N2CCCc3ccccc32)cc1,active: 9.28 µM
3,COc1ccc(C)cc1CN(C)c1ccc(S(=O)(=O)N2CCN(C)CC2)cn1,"inconclusive: 18.5 µM [inhibitor, single point]"
4,CCOC(=O)C(O)(c1ccc(NC(=S)NC(=O)c2ccc(Cl)cc2Cl)cc1)C(F)(F)F (stereo unspecified),"inconclusive: 4.15 µM [inhibitor, partial curve, poor fit]"
5,O=C(Cc1ccccc1)NC(=S)Nc1ccc2oc(-c3ccccc3)nc2c1,"inconclusive: 10.4 µM [inhibitor, single point]"
6,C#CCOCCOCCOCCNc1nc(N2CCOCC2)nc(N2CCN(C(=O)CCCCCCCCCCNC(=O)[C@H](CO)n3cc(CCCCCN)nn3)CC2)n1,active: 0.828 µM
7,O=C(Nc1ccc(S(=O)(=O)Nc2ncccn2)cc1)c1ccc(N2CCCC2=O)cc1,"inconclusive: 3.7 µM [inhibitor, partial curve]"
8,COC(=O)Nc1sc2c(c1C(=O)NCc1ccco1)CCCC2,"inconclusive: 16.5 µM [inhibitor, single point]"
9,Cc1nonc1OCCn1c([N+](=O)[O-])cnc1C,inactive
10,COc1cccc(-c2nc(CS(=O)(=O)CC(=O)N3CCN(c4ccccn4)CC3)c(C)o2)c1,"inconclusive: 18.5 µM [inhibitor, single point]"
11,NCCSC1CC(=O)N(c2ccc(Cl)c(Cl)c2)C1=O (stereo unspecified),"inconclusive: 18.5 µM [inhibitor, single point]"
12,CC(=O)Nc1nc2cc(N)ccc2s1,"inconclusive: 14.7 µM [inhibitor, single point]"
13,CC(C)Oc1ccc(OCCn2c(S(=O)(=O)O)nc3c(N)ncnc32)cc1,"inconclusive: 13.1 µM [inhibitor, partial curve]"
14,Cc1ccc(C)c(NC(=O)Nn2cnnc2)c1,"inconclusive: 16.5 µM [inhibitor, single point]"
15,COc1cc2cnc(-c3ccccc3)c(-c3cc(OC)c(OC)c(OC)c3)c2cc1OC,active: 3.7 µM
16,Nc1nc(SCC(=O)Nc2cccc(S(=O)(=O)N3CCCCCC3)c2)n[nH]1,"inconclusive: 4.15 µM [inhibitor, full curve, poor fit]"
17,Cn1c(=O)n(C)c2cc(S(=O)(=O)NCCc3ccccc3)ccc21,"inconclusive: 10.4 µM [inhibitor, single point]"
18,COc1ccc(C(=O)COC(=O)CN2C(=O)c3ccccc3C2=O)c(OC)c1,inactive
19,CCN(CC(=O)Nc1ccc2c(c1)OCCO2)Cc1nc2cc(Cl)ccc2c(=O)[nH]1,"inconclusive: 18.5 µM [inhibitor, single point]"
20,Cc1ccccc1N1C(=O)c2ccccc2C1O (stereo unspecified),"inconclusive: 3.29 µM [inhibitor, single point]"
21,COc1ccc(CN2CCC(C(=O)c3ccc(Cl)cc3)CC2)cc1,"inconclusive: 4.15 µM [inhibitor, partial curve, poor fit]"
22,Cc1cc(C)n2c(SCC(=O)N3CCN(S(=O)(=O)c4ccc(Cl)cc4)CC3)nnc2n1,"inconclusive: 18.5 µM [inhibitor, single point]"
23,Cc1cc(N2CCN(C(=O)c3ccco3)CC2)n2nc(C)c(-c3ccc(Cl)cc3)c2n1,active: 4.15 µM
24,CCC(=O)N(CCCN(C)C)c1nc(-c2cc(OC)ccc2OC)cs1,"inconclusive: 11.7 µM [inhibitor, single point]"

# 14 neighbouring records already listed:
row,SMILES,Potency
8,COC(=O)Nc1sc2c(c1C(=O)NCc1ccco1)CCCC2,"inconclusive: 16.5 µM [inhibitor, single point]"
9,Cc1nonc1OCCn1c([N+](=O)[O-])cnc1C,inactive
10,COc1cccc(-c2nc(CS(=O)(=O)CC(=O)N3CCN(c4ccccn4)CC3)c(C)o2)c1,"inconclusive: 18.5 µM [inhibitor, single point]"
11,NCCSC1CC(=O)N(c2ccc(Cl)c(Cl)c2)C1=O (stereo unspecified),"inconclusive: 18.5 µM [inhibitor, single point]"
12,CC(=O)Nc1nc2cc(N)ccc2s1,"inconclusive: 14.7 µM [inhibitor, single point]"
13,CC(C)Oc1ccc(OCCn2c(S(=O)(=O)O)nc3c(N)ncnc32)cc1,"inconclusive: 13.1 µM [inhibitor, partial curve]"
14,Cc1ccc(C)c(NC(=O)Nn2cnnc2)c1,"inconclusive: 16.5 µM [inhibitor, single point]"
15,COc1cc2cnc(-c3ccccc3)c(-c3cc(OC)c(OC)c(OC)c3)c2cc1OC,active: 3.7 µM
16,Nc1nc(SCC(=O)Nc2cccc(S(=O)(=O)N3CCCCCC3)c2)n[nH]1,"inconclusive: 4.15 µM [inhibitor, full curve, poor fit]"
17,Cn1c(=O)n(C)c2cc(S(=O)(=O)NCCc3ccccc3)ccc21,"inconclusive: 10.4 µM [inhibitor, single point]"
18,COc1ccc(C(=O)COC(=O)CN2C(=O)c3ccccc3C2=O)c(OC)c1,inactive
19,CCN(CC(=O)Nc1ccc2c(c1)OCCO2)Cc1nc2cc(Cl)ccc2c(=O)[nH]1,"inconclusive: 18.5 µM [inhibitor, single point]"
20,Cc1ccccc1N1C(=O)c2ccccc2C1O (stereo unspecified),"inconclusive: 3.29 µM [inhibitor, single point]"
21,COc1ccc(CN2CCC(C(=O)c3ccc(Cl)cc3)CC2)cc1,"inconclusive: 4.15 µM [inhibitor, partial curve, poor fit]"

# The list continues.

row,SMILES,Potency
1,Cc1cc2nc(SC(C)C(=O)O)[nH]c2cc1C (stereo unspecified),"inconclusive: 11.7 µM [inhibitor, single point]"
2,Cc1ccccc1N(CC(=O)NCC1CCCO1)C(=O)CNS(=O)(=O)c1ccc(F)cc1 (stereo unspecified),inactive
3,COc1ccc(NC(=O)C2=CCN(S(=O)(=O)c3ccccc3)CC2)cc1OC,"inconclusive: 13.1 µM [inhibitor, partial curve]"
4,CN(C)c1ccc(CN(C(=O)C2COc3ccccc3O2)C2CCS(=O)(=O)C2)cc1 (stereo unspecified),active: 5.22 µM
5,COC(=O)c1[nH]c2ccccc2c1NC(=O)C(C)N1CCN(C(=O)c2ccco2)CC1 (stereo unspecified),active: 10.4 µM
6,CCN(CC(=O)Nc1c(F)cccc1F)C(=O)c1cccnc1Sc1ccccc1,inactive
7,C=CCN1C(=O)NC(=O)/C(=C/c2ccoc2)C1=O,"inconclusive: 0.465 µM [inhibitor, full curve, poor fit]"
8,Nc1ccc(-c2nc(-c3ccccc3)nc3ccccc23)cc1,inactive
9,COc1cc2c(c(OC)c1OC)-c1c(cc3c(c1OC)OCO3)[C@@H](OC(C)=O)[C@H](C)[C@H](C)C2,active: 10.4 µM
10,CCOc1ccccc1C1NC(=O)NC(C)=C1C(=O)OC1CCCC1C (stereo unspecified),"inconclusive: 0.928 µM [inhibitor, full curve, poor fit]"
11,CCOc1ccccc1NC(=O)CSc1ccccc1,"inconclusive: 9.28 µM [inhibitor, partial curve, poor fit]"
12,CCOC(=O)N1CCN(Cc2nc(N)nc(Nc3ccc(OCC)cc3)n2)CC1,"inconclusive: 11.7 µM [inhibitor, single point]"
13,COc1ccccc1CNc1nc(C)c(C(C)=O)s1,inactive
14,O=C(COC(=O)c1ccc(O)cc1)NCCCc1ccccc1,"inconclusive: 9.28 µM [inhibitor, partial curve, poor fit]"
15,COc1ccc(/C(C)=N/NC(=O)Cc2ccc(Cl)cc2)cc1,inactive
16,Cc1ccccc1C(=O)NCCCn1ccnc1,"inconclusive: 18.5 µM [inhibitor, partial curve, poor fit]"
17,Cc1cc(C)cc(SCc2noc(C(=O)NC(C)C)c2C(=O)NC(C)C)c1,inactive
18,CNC(=O)C(C)N1c2cccc3cccc(c23)S1(=O)=O (stereo unspecified),inactive
19,CCN(CC)CCN(C(=O)c1ccc(C(=O)c2ccccc2)cc1)c1nc2cc3c(cc2s1)OCO3,inactive
20,CN(C)S(=O)(=O)c1cc(NC(=O)c2cc(=O)[nH]c3ccccc23)ccc1Cl,inactive
21,CCOC(=O)N(c1ccccc1)P1(=S)OCC(C)O1 (stereo unspecified),"inconclusive: 1.17 µM [inhibitor, partial curve, poor fit]"
22,CCc1nnc(NC(=O)c2ccc(S(=O)(=O)N(CC)Cc3ccccc3)cc2)o1,inactive
23,COc1ccc(C2Nc3ccccc3C(=O)N2NS(=O)(=O)c2ccccc2)c(OC)c1 (stereo unspecified),"inconclusive: 13.1 µM [inhibitor, partial curve, poor fit]"
24,CC(Cc1ccccc1)NC(=O)/C=C/c1ccc([N+](=O)[O-])cc1 (stereo unspecified),inactive

row,SMILES,Potency
1,CNc1oc(-c2ccc(C)cc2)nc1P(=O)(c1ccccc1)c1ccccc1,active: 14.7 µM
2,CCn1c(CNc2ccc(Cl)cc2)nnc1SCc1ccccc1,"inconclusive: 4.15 µM [inhibitor, partial curve]"
3,NC(=O)[C@@H]1CCCN1Cc1c(C(=O)N2CCN(C3CCCCC3)CC2)nc2ccccn12,"inconclusive: 18.5 µM [inhibitor, single point]"
4,O=C1CN(/N=C/c2ccc(-c3ccc([N+](=O)[O-])cc3)o2)C(=O)N1,"inconclusive: 13.5 µM [inhibitor, single point]"
5,CCN(CC)S(=O)(=O)c1cccc(-c2nnc(SC(C)C(=O)NCCC3=CCCCC3)o2)c1 (stereo unspecified),inactive
6,CC(C)=CCN1CCN(Cc2ccc3nsnc3c2)CC1CCO (stereo unspecified),"inconclusive: 18.5 µM [inhibitor, single point]"
7,Fc1ccc(-[n+]2nc(Nc3ccccc3)sc2-c2c(Cl)cccc2Cl)cc1,"inconclusive: 5.22 µM [inhibitor, partial curve]"
8,O=C1C=C(c2ccccc2C(F)(F)F)C[C@@H](c2ccc3c(c2)OCO3)C1,"inconclusive: 4.65 µM [inhibitor, single point]"
9,CCn1nc(NS(=O)(=O)c2ccccc2[N+](=O)[O-])c2cc3ccc(C)cc3nc21,"inconclusive: 18.5 µM [inhibitor, single point]"
10,C=CCNC(=S)N/N=C(\C)c1cc(OC)c(OC)c(OC)c1,"inconclusive: 18.5 µM [inhibitor, single point]"
11,COc1ccc(NC(=O)c2ccc(F)cc2)cc1S(=O)(=O)Nc1cc(C)ccc1Br,"inconclusive: 18.5 µM [inhibitor, single point]"
12,CC(C)Cn1c(-c2ccc(F)cc2)n[nH]c1=S,inactive
13,O=C1CN(C(=O)COc2ccccc2F)c2ccccc2N1,"inconclusive: 9.28 µM [inhibitor, single point]"
14,Cc1ccn(CC(=O)N2CCCC(N3CCN(c4cccc(Cl)c4)CC3)C2)n1 (stereo unspecified),"inconclusive: 11.7 µM [inhibitor, single point]"
15,Cc1ccc(C(=O)CC(=O)COc2ccc(Cl)cc2)cc1,inactive
16,Cn1c2ccc(CC(=O)O)cc2c2cc(CC(=O)O)ccc21,inactive
17,O=C(N=C1SC2CS(=O)(=O)CC2N1c1ccccc1)C1CCCCC1 (stereo unspecified),inactive
18,Cc1cc(C)c(-c2cc(C(F)(F)F)no2)c(=O)[nH]1,active: 11.7 µM
19,CCN(CC)CCn1c(NCc2ccc(OC)cc2)nc2ccccc21,inactive
20,Cc1ccc(NC(=O)c2cnccn2)cc1,"inconclusive: 5.22 µM [inhibitor, full curve, poor fit]"
21,Cc1ccc(NC(=O)CCNS(=O)(=O)c2ccc3[nH]c(=O)oc3c2)cc1N(C)C,inactive
22,CCOc1cc(NC(=O)c2ccccn2)c(OCC)cc1NC(=O)c1ccc(C)cc1,inactive
23,CN(c1ccc(C(=O)N/N=C/c2cccc([N+](=O)[O-])c2)cc1)S(=O)(=O)c1ccccc1,"inconclusive: 0.0828 µM [inhibitor, full curve, poor fit]"
